PubChem BioAssay AID1259425 | University of Nebraska Medical Center | 2018
Purpose: 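Seek colon cancer weak points whose silencing resembles KSR1 loss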 (primary screen). System: HCT116 human colon cancer cells. Reagent: siRNA pool against human genes, 50 nM siRNA. Measured: 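After 50 nM siRNA pool, branched-DNA assay measures six marker transcripts per well, minus blank, normalised to the geometric mean of two housekeeping transcripts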. Direction: BNIP3L mRNA: higher = more BNIP3L transcript after knockdown; NDRG1 mRNA: higher = more NDRG1 transcript after knockdown.
Here is an unselected part of about 14,000 reagents tested. Further read-outs or replicates are left out here. Not stated in the record: the time to read-out.

For LCP2 (GeneID 3937), the entry reads BNIP3L mRNA, set 1 = 0.161; NDRG1 mRNA, set 1 = 0.0865. Against SSU72 (GeneID 29101) the deposit lists BNIP3L mRNA, set 1 = 0.0715; NDRG1 mRNA, set 1 = 0.122. Against CCDC71 (GeneID 64925), the values are BNIP3L mRNA, set 1 = 0.048; NDRG1 mRNA, set 1 = 0.149. After knock-down of RAB9A (GeneID 9367), the record shows BNIP3L mRNA, set 1 = 0.111; NDRG1 mRNA, set 1 = 0.189. For MGAT2 (GeneID 4247), the entry reads BNIP3L mRNA, set 1 = 0.0582; NDRG1 mRNA, set 1 = 0.45. COX6A2 (GeneID 1339) gave BNIP3L mRNA, set 1 = 0.0756; NDRG1 mRNA, set 1 = 0.528.

Silencing of MAN2B1 (GeneID 4125) came out at: BNIP3L mRNA, set 1 = 0.11; NDRG1 mRNA, set 1 = 0.152. Against QRICH2 (GeneID 84074), the values are BNIP3L mRNA, set 1 = 0.205; NDRG1 mRNA, set 1 = 0.23. Silencing of KMT2E (GeneID 55904) gave: BNIP3L mRNA, set 1 = 0.0955; NDRG1 mRNA, set 1 = 0.171. Silencing of XPNPEP3 (GeneID 63929) resulted in: BNIP3L mRNA, set 1 = 0.0878; NDRG1 mRNA, set 1 = 0.253. With knock-down of DCPS (GeneID 28960), the record shows BNIP3L mRNA, set 1 = 0.0796; NDRG1 mRNA, set 1 = 0.0901. Depletion of PGD (GeneID 5226) gave: BNIP3L mRNA, set 1 = 0.129; NDRG1 mRNA, set 1 = 0.511.

With knock-down of RASA3 (GeneID 22821), the record shows BNIP3L mRNA, set 1 = 0.0449; NDRG1 mRNA, set 1 = 0.307. TRAM1 (GeneID 23471) scored BNIP3L mRNA, set 1 = 0.116; NDRG1 mRNA, set 1 = 0.136.

In a second layout: entries from further up
| target gene | BNIP3L mRNA, set 1 | NDRG1 mRNA, set 1 |
| --- | --- | --- |
| CCDC71 (GeneID 64925) | 0.048 | 0.149 |
| RAB9A (GeneID 9367) | 0.111 | 0.189 |
| MGAT2 (GeneID 4247) | 0.0582 | 0.45 |
| COX6A2 (GeneID 1339) | 0.0756 | 0.528 |
| MAN2B1 (GeneID 4125) | 0.11 | 0.152 |

The listing continues.
After knock-down of EGFL8 (GeneID 80864), the record shows BNIP3L mRNA, set 1 = 0.146; NDRG1 mRNA, set 1 = 0.533. After knock-down of GEMIN8 (GeneID 54960) the results were BNIP3L mRNA, set 1 = 0.0413; NDRG1 mRNA, set 1 = 0.13. After knock-down of SLC5A7 (GeneID 60482) the results were BNIP3L mRNA, set 1 = 0.151; NDRG1 mRNA, set 1 = 0.143. Knock-down of KIAA1549L (GeneID 25758) resulted in: BNIP3L mRNA, set 1 = 0.0927; NDRG1 mRNA, set 1 = 0.0599. Against LOXL3 (GeneID 84695), the entry reads BNIP3L mRNA, set 1 = 0.16; NDRG1 mRNA, set 1 = 0.128. ZNF20 (GeneID 7568) gave BNIP3L mRNA, set 1 = 0.187; NDRG1 mRNA, set 1 = 0.218.

With knock-down of PKN1 (GeneID 5585), the record shows BNIP3L mRNA, set 1 = 0.125; NDRG1 mRNA, set 1 = 0.19. Against CLDN22 (GeneID 53842) the deposit lists BNIP3L mRNA, set 1 = 0.0946; NDRG1 mRNA, set 1 = 0.16. LPCAT1 (GeneID 79888) scored BNIP3L mRNA, set 1 = 0.216; NDRG1 mRNA, set 1 = 0.228. With knock-down of MEGF9 (GeneID 1955), the screen gave BNIP3L mRNA, set 1 = 0.134; NDRG1 mRNA, set 1 = 0.345. SULT1C2 (GeneID 6819) showed BNIP3L mRNA, set 1 = 0.063; NDRG1 mRNA, set 1 = 0.115. SLC22A11 (GeneID 55867) showed BNIP3L mRNA, set 1 = 0.095; NDRG1 mRNA, set 1 = 0.158.

Against MCUR1 (GeneID 63933) the deposit lists BNIP3L mRNA, set 1 = 0.148; NDRG1 mRNA, set 1 = 0.1. CCKAR (GeneID 886) scored BNIP3L mRNA, set 1 = 0.139; NDRG1 mRNA, set 1 = 0.128.
